{"sequences": {"note": "Amino acid sequences for entries named in this document (tags omitted).", "UniProt P21453, whole entry, looked up": "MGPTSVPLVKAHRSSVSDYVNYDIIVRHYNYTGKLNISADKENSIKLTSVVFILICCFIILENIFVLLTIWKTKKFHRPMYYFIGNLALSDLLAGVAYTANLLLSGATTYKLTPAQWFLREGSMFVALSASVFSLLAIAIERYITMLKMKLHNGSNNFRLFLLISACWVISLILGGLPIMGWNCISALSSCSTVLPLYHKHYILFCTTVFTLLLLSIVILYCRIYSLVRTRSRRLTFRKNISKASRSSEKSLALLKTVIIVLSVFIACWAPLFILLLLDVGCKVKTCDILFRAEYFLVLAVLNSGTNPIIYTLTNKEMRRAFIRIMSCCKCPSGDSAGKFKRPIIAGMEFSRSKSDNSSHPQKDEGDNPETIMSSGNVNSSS"}, "source": "PubChem BioAssay AID449", "about": "(The Scripps Research Institute Molecular Screening Center, 2006)", "note": "This is one part of the list. Further columns of the screen follow, without active or inactive calls. Compounds called inactive in the main read-out are mostly missing here.", "data": [{"target": "Sphingosine 1-phosphate receptor 1 (Homo sapiens) (UniProt P21453)", "experiment": "S1P1 agonists and agonism potentiators, primary screen, cell-based, primary and confirmation screens, CRE-bla reporter (AID 449);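 further: forskolin at 4 µM as EC80 and the EC20 agonist is SEW2871; 100% = SEW2871 at its EC100 plus forskolin at EC80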", "details": "S1P1 CRE-bla cells, forskolin, beta-lactamase FRET, potentiator mode; measured here: confirmation screen, triplicate average; at 9.5 µM; stronger effect = higher value; 100% = saturating reference agonist, 0% = basal; S1P1 agonist co-added at EC20, 2 nM", "units": {"activation": "%"}, "values": [{"smiles": "CN1/C(=C/C(=O)c2nc(S(C)(=O)=O)ncc2Cl)C(C)(C)c2ccccc21", "activation": 75.4}, {"smiles": "O=S1(=O)C=C(Sc2nnc(-c3ccccc3)o2)c2ccccc21", "activation": 120}, {"smiles": "O=S(=O)(c1cccs1)N1CCN(CC(O)COc2cc(Cl)ccc2Cl)CC1", "note": "(stereo not given)", "activation": 96.9}, {"smiles": "CCOc1ccc(-c2noc(-c3cccnc3)n2)cc1OC", "activation": 98.1}, {"smiles": "CC(=O)N1C=CN(C(C)=O)C(c2cn(C)c3ccccc23)C1c1cn(C)c2ccccc12", "note": "(stereo not given)", "activation": 59.9}, {"smiles": "Cc1ccc(-c2csc(N3CCC(NS(=O)(=O)c4ccc5c(c4)OCCO5)CC3)n2)cc1", "activation": 115}, {"smiles": "CCOC(=O)CN1C(=O)C(C)(C)Oc2ccc(C(=O)Nc3ccccc3OC)cc21", "activation": 59.5}, {"smiles": "CC(=O)c1sc(NC(=O)C2(F)C(F)(F)C(F)(F)C(F)(F)C(F)(F)C2(F)F)nc1C", "activation": 88.4}, {"smiles": "CC1CCc2nc(NC(=O)CSc3nc4ccccc4o3)sc2C1", "note": "(stereo not given)", "activation": 105}, {"smiles": "Cc1cccc(-c2nc(C#N)c(NC3CCCCC3)o2)c1", "activation": 71.6}, {"smiles": "CC1Cc2ccccc2N1c1ncnc2nc[nH]c12", "note": "(stereo not given)", "activation": 82.1}, {"smiles": "Cc1ccc(-n2c(C)cc(C(=O)CSc3nnnn3C)c2C)cc1", "activation": 67.2}, {"smiles": "Clc1ccccc1C1=Nn2c(nnc2-c2ccncc2)SC1", "activation": 83}, {"smiles": "Cc1ccc(OCc2nc(-c3ccccc3)no2)c(C)c1", "activation": 82.4}, {"smiles": "CC(=O)Oc1ccc(N2C(=O)C3C(C2=O)C2(C)C=CC3(C)O2)cc1", "note": "(stereo not given)", "activation": 86}, {"smiles": "O=C(C1CCC1)N1CCc2cc(S(=O)(=O)Nc3ccc4c(c3)OCCO4)ccc21", "activation": 85.1}, {"smiles": "N#Cc1ccc(NC(=O)Nc2ccc(Cl)cc2)cc1", "activation": 118}, {"smiles": "c1ccc(-c2ccc(-c3nc(-c4ccncc4)no3)cc2)cc1", "activation": 95.1}, {"smiles": "COc1ccc2ncn(-c3ccccc3)c2c1", "activation": 55.1}, {"smiles": "CC(=O)Nc1cc(OC(C)=O)c2nonc2c1OC(C)=O", "activation": 102}, {"smiles": "COc1ccccc1-c1nc(-c2ccc(Br)cc2)no1", "activation": 89.7}, {"smiles": "Cc1cc(C(=O)CSc2nnc(-c3cccnc3)n2-c2ccccc2F)c(C)n1C", "activation": 101}, {"smiles": "O=C(Nc1ncc(Br)s1)C(Cc1ccccc1)n1cccc1", "note": "(stereo not given)", "activation": 92.3}, {"smiles": "CCOC(=O)c1cnc(-n2nc(C)cc2C)nc1NC1CCCCC1", "activation": 114}, {"smiles": "O=S1(=O)C=C(Sc2nc3cc(Cl)ccc3o2)c2ccccc21", "activation": 117}, {"smiles": "CNc1oc(-c2ccc(OCc3ccccc3)cc2)nc1C#N", "activation": 82.9}, {"smiles": "Cc1ccc2nc(C(F)(F)F)c(C#N)c(N)c2c1", "activation": 62.3}, {"smiles": "Clc1ccc(CSc2nnc(-c3ccncc3)o2)c(Cl)c1", "activation": 80.4}, {"smiles": "O=C(c1cc(-c2ccco2)on1)N1CCN(C(c2ccccc2)c2ccccc2)CC1", "activation": 68.7}, {"smiles": "Cc1ccc(C(=O)Nc2nc(COc3ccccc3)cs2)s1", "activation": 73.2}, {"smiles": "COc1ccc(Cc2nc(-c3ccc(-n4cccc4)cc3)no2)cc1OC", "activation": 68.5}, {"smiles": "CC(=O)c1ccc(NC(=O)N2CCN(c3cccc(Cl)c3)CC2)cc1", "activation": 75.1}, {"smiles": "Cc1cc(C(=O)CSc2nnnn2-c2ccc(O)cc2)c(C)n1Cc1ccc2c(c1)OCO2", "activation": 87.5}, {"smiles": "CCc1ccc(NC(=O)c2cc(-c3ccco3)on2)cc1", "activation": 71.2}, {"smiles": "Cc1ccc(C(C)C)c(OCc2nc(-c3nonc3N)no2)c1", "activation": 78.7}, {"smiles": "N/C(=N\\c1nc2c(c(=O)[nH]1)CCCC2)Nc1ccccc1", "activation": 57}, {"smiles": "Cn1c(-c2c(N)n(C3CCCC3)c3nc4ccccc4nc23)nc2ccccc21", "activation": 86.5}, {"smiles": "c1csc(CCNc2ncnc3sc4c(c23)CCC4)c1", "activation": 117}, {"smiles": "O=C(CSc1nnc(Cn2nnc3ccccc32)o1)N(Cc1ccc(F)cc1)c1ccccc1", "activation": 89.2}, {"smiles": "CCc1c(C)sc(NC(=O)c2cc(-c3ccco3)on2)c1C#N", "activation": 80.4}, {"smiles": "COc1cccc(-c2nnc3sc(C4CCCCC4)nn23)c1", "activation": 91.4}, {"smiles": "COc1cccc2sc(Nc3nc(-c4ccccn4)cs3)nc12", "activation": 82.5}, {"smiles": "c1ccc(CN2CCN(c3ncnc4c3[nH]c3ccccc34)CC2)cc1", "activation": 62.3}, {"smiles": "CCOC(=O)CN(C(=O)CSc1nnc(-c2cccc(OC)c2)o1)c1ccc(F)cc1", "activation": 65.9}, {"smiles": "CCCCOc1ncnc2c1[nH]c1ccc(F)cc12", "activation": 99}, {"smiles": "CCN(CC)C(=O)C1CCN(S(=O)(=O)c2ccc3oc4ccccc4c3c2)CC1", "activation": 85.9}, {"smiles": "Cc1cc2nc(-c3ccc(NC(=O)C(C)C)cc3)oc2cc1C", "activation": 97.3}, {"smiles": "Cc1cc(N2CCOCC2)nc(NCc2ccccc2)n1", "activation": 68.9}, {"smiles": "Oc1ccc(-c2nnc(SCC3CCCCC3)o2)cc1", "activation": 106}, {"smiles": "O=C(Nc1cccc(C(F)(F)F)c1)N1CCC(c2nc(-c3ccc(F)cc3)no2)CC1", "activation": 80.6}, {"smiles": "Cc1ccc2[nH]c3c(NCc4ccco4)ncnc3c2c1", "activation": 85.3}, {"smiles": "CC(C)[C@H](NC(=O)OC(C)(C)C)c1nnc(SCC(=O)Nc2ccc(Br)cc2)o1", "activation": 61.2}, {"smiles": "CCOc1nc(C)ccc1-c1noc(-c2ccncc2)n1", "activation": 58.3}, {"smiles": "Clc1ccc(CCNc2ncnc3nc[nH]c23)cc1", "activation": 89.1}, {"smiles": "CCOc1ccc(C(=O)Nc2c(C(N)=O)oc3ccccc23)cc1", "activation": 58.6}]}]}
